A negative result means that nothing was seen under these conditions. Tags and fusion partners may be left off the protein sequences shown. For some assays here: A weaker result is weaker than the reference pair of the same experiment.
Columns and labels:
[1] = biological target: T1, DME (MBP-Δ537DME, wild-type glycosylase domain) (UniProt Q8LK56); test: enzyme reaction in vitro; settings: purified recombinant protein
T1 sequence: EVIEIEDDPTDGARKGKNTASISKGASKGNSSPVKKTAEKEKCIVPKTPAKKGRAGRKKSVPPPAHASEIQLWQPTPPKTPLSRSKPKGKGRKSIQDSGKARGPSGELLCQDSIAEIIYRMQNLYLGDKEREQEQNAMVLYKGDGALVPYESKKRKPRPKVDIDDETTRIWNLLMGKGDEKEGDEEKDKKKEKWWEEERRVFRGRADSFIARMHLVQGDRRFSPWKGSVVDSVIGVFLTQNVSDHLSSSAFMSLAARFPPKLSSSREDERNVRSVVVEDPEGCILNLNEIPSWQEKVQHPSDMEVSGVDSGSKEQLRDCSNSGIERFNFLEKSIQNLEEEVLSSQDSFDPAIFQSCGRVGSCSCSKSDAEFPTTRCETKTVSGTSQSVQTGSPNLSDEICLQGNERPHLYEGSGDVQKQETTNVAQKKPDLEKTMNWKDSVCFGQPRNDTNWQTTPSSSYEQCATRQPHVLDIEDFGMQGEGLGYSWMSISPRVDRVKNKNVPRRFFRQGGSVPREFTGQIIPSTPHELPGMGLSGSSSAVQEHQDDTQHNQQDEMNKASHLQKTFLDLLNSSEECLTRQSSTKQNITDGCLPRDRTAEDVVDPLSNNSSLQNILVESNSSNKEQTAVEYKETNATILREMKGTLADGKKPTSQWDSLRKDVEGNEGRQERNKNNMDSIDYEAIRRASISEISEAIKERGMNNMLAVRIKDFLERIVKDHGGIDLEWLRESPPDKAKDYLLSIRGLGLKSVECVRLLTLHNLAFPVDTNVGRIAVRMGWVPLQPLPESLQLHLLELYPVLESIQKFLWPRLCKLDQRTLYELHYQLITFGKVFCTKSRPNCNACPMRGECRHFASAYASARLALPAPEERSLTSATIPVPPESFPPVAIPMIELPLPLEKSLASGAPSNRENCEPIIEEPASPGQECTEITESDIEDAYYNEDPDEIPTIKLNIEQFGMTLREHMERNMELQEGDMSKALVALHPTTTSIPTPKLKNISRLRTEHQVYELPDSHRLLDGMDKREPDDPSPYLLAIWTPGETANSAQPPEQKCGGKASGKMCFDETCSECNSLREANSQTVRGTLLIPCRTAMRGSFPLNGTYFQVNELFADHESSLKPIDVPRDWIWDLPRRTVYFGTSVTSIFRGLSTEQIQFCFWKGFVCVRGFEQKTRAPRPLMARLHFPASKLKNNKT

[2] = biological target: T1, DME (MBP-Δ537DME, wild-type glycosylase domain); test: binding assay; settings: no covalent trapping with NaBH4; purified recombinant protein; label: 5'-32P top strand

Sequence: CTATACCTCCTCAACTCCGGTCACCGTCTCCGGCG (double strand) [fully methylated (MEA-1.6F18meC / MEA-1.6R17meC)]
- activity on this sequence ([1]; 5mC at top position 18 and bottom position 19 [top 18 = 5mC, bottom 17 (duplex position 19) = 5mC], less active than on hemimethylated, label: 5'-32P bottom strand, letters built from the parent sequence and the stated change): less active

Sequence: CTATACCTCCTCAACTCCGGTCACCGTCTCCGGCG (double strand) [hemimethylated bottom strand (MEA-1.6F / MEA-1.6R17meC)]
- activity on this sequence ([1]; 5mC in bottom strand at duplex position 19 [bottom 17 (duplex position 19) = 5mC], reference rate, label: 5'-32P bottom strand, letters built from the parent sequence and the stated change): active

Sequence: CTATACCTCCTCAACTCCGGTCACCGTCTCCGGCG (double strand) [hemimethylated meCpG (MEA-1.6F18meC / MEA-1.6R)]
- activity on this sequence ([1]; 5mC at position 18 of top strand [top 18 (5mC)], 5mC excision, beta- and delta-elimination products, 250 nM DME, 13.3 nM DNA, 0.1 mM EDTA, 37 C 1 hr, label: 5'-32P top strand, letters built from the parent sequence and the stated change, variant of unmethylated CpG (MEA-1.6F / MEA-1.6R)): active

Sequence: CTATACCTCCTCAACTCCGGTCACCGTCTCCGGCG (double strand) [meCpNpG (MEA-1.6F17meC / MEA-1.6R)]
- activity on this sequence ([1]; 5mC at position 17 of top strand [top 17 = 5mC], CpNpG context, label: 5'-32P top strand, letters built from the parent sequence and the stated change, variant of unmethylated CpG (MEA-1.6F / MEA-1.6R)): active

Sequence: CTATACCTCCTCAACTCCGGTCACCGTCTCCGGCG (double strand) [meCpNpN (MEA-1.6F22meC / MEA-1.6R)]
- activity on this sequence ([1]; 5mC at position 22 of top strand [top 22 = 5mC], CpNpN context, label: 5'-32P top strand, letters built from the parent sequence and the stated change, variant of unmethylated CpG (MEA-1.6F / MEA-1.6R)): active

Sequence: CTATACCTCCTCAACTCCGGTCACCGTCTCCGGCG (double strand) [unmethylated CpG (MEA-1.6F / MEA-1.6R)]
- binding result [2]: no binding
- activity on this sequence ([1]; no lyase activity, label: 5'-32P top strand): not active

Sequence: CTATACCTCCTCAACTCTGGTCACCGTCTCCGGCG / CGCCGGAGACGGTGACCGGAGTTGAGGAGGTATAG [T/G mismatch (MEA-1.6F18T / MEA-1.6R)]
- activity on this sequence ([1]; T/G activity somewhat less than on meC/G, label: 5'-32P top strand, variant of unmethylated CpG (MEA-1.6F / MEA-1.6R)): less active

Reference: patent US20090305241, “DNA demethylases and uses thereof” (REGENTS OF THE UNIVERSITY OF CALIFORNIA, published 2009)
